Measured data: PubChem BioAssay AID686943 (Drosophila RNAi Screening Center, 2013)
The screen tested about 23,000 reagents; shown is a random part of those that have a named target and a result. 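Extra replicates exist only for a retested subset of genes; insulin dose and duration not given; both raised and lowered dpERK matter.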 Not stated in the record: the amount of reagent, the time to read-out.

Purpose: 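Knockdowns that increase or decrease active ERK after insulin receptor stimulation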 (primary screen)
Cells: Drosophila S2R+ haemocyte-like cells expressing YFP-tagged ERK (Rolled)
Reagent: long dsRNA against Drosophila genes
Treatment: insulin stimulation versus unstimulated cells; dose and duration not given
Measured: 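Per-plate z-scores of phospho-ERK immunostaining normalised to YFP-tagged ERK, measured with and without insulin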
Reading the numbers: replicate 1, z-score of dpERK with insulin and replicate 2, z-score of dpERK with insulin: higher = more active ERK per ERK-YFP after insulin; replicate 1, z-score of dpERK under basal conditions: higher = more basal active ERK per ERK-YFP; replicate 1, z-score of ERK-YFP with insulin: higher = more YFP-tagged ERK signal

| target gene | dsRNA | replicate 1, z-score of dpERK with insulin | replicate 2, z-score of dpERK with insulin | replicate 1, z-score of dpERK under basal conditions | replicate 1, z-score of ERK-YFP with insulin |
| --- | --- | --- | --- | --- | --- |
| lncRNA:CR9284 (long non-coding RNA:CR9284) | DRSC03899 | -0.51 | -0.75 | -0.18 | 0.33 |
| lncRNA:CR9284 (long non-coding RNA:CR9284) | DRSC04536 | -0.26 | -0.61 | -0.22 | 0.23 |
| Ptpmeg (Protein tyrosine phosphatase Meg) | DRSC08684 | 0.81 | 0.5 | 1.46 | 0.38 |
| HDAC1 (Histone deacetylase 1) | DRSC08696 | -1.43 | -0.61 | -0.42 | -1.65 |
| Arpc5 (Actin-related protein 2/3 complex, subunit 5) | DRSC00730 | -0.34 | -0.62 | 0.07 | -1.3 |
| ArfGAP1 (ADP-ribosylation factor GTPase activating protein 1) | DRSC11173 | 1.13 | 1.48 | 2.05 | -1.95 |
| CG15084 | DRSC06515 | 0.2 | 0.52 | -0.16 | 0.42 |
| CG15084 | DRSC21403 | 0.03 | -0.08 | -0.9 | 0.02 |
| Noc2 (Nucleolar complex protein 2) | DRSC03165 | 0.17 | 0.02 | -2.5 | -0.16 |
| CG15772 | DRSC18078 | -0.82 | -0.07 | 0.79 | 0.63 |
| Atac2 (Ada2a-containing complex component 2) | DRSC02053 | 0.27 | -0.72 | 1.53 | -0.29 |
| Vps35 (Vacuolar protein sorting 35) | DRSC04519 | 0.46 | 0.31 | -0.76 | 0.16 |
| tn (retired record) | DRSC05768 | -0.33 | -0.24 | 1.76 | -0.28 |
| tn (retired record) | DRSC06532 | -0.26 | 0.75 | 0.6 | -0.55 |
| Takl1 (Tak1-like 1) | DRSC13443 | 0.24 | 0.88 | -0.11 | -0.26 |
| CAH8 (Carbonic anhydrase 8) | DRSC15784 | -0.01 | 0.91 | -0.07 | 0.15 |
| CG32631 | DRSC19768 | -1.03 | -0.3 | 2.81 | -0.53 |
| CG13551 | DRSC21847 | 0.42 | 0.78 | -1.26 | -0.22 |
| uncNacbeta | DRSC00326 | 0.8 | -0.64 | 0.81 | -0.83 |
| CG31715 | DRSC21607 | 1.75 | 0.82 | 0.07 | -0.78 |
| CG15572 | DRSC18060 | 0.26 | 0.58 | 0.06 | 0.35 |
| Kua | DRSC02100 | 0.13 | 0 | -0.19 | -0.04 |
| Saysd1 (SAYSVFN motif domain containing 1) | DRSC14664 | -0.12 | -0.19 | 0.03 | 0.38 |
| GstD2 (Glutathione S transferase D2) | DRSC16684 | -0.09 | 0.31 | -0.22 | 0.46 |
| CG32473 | DRSC14352 | -0.04 | 0.11 | 0.14 | 0.62 |
| CG32473 | DRSC16446 | -0.63 | 0 | 1.29 | -1.01 |
| CG11231 (retired record) | DRSC17207 | 1.22 | 0.1 | 0.87 | 0.97 |
| CG5114 | DRSC10482 | -0.14 | -1.75 | -1.61 | 1.64 |
| mago (mago nashi) | DRSC04703 | 0.55 | 0.96 | 2.77 | 1.22 |
| Nup35 (Nucleoporin 35kDa) | DRSC19999 | -1.2 | -0.57 | -0.84 | 0.26 |
| Rim (Rab3 interacting molecule) | DRSC16224 | -0.45 | 0 | -0.39 | 1.61 |
| Rim (Rab3 interacting molecule) | DRSC16225 | -2.23 | -3.15 | -2.32 | 0.57 |
| Rim (Rab3 interacting molecule) | DRSC16226 | 0.14 | 0.48 | -0.44 | 0.42 |
| Rim (Rab3 interacting molecule) | DRSC16227 | 0.51 | 0.04 | -0.71 | 0.4 |
| Rim (Rab3 interacting molecule) | DRSC22406 | 0.87 | 0.26 | 1.01 | 0.15 |
| Gdap2 | DRSC06789 | 0.22 | 0.05 | 1.2 | -0.28 |
| Gdap2 | DRSC06790 | -0.44 | -0.14 | -0.21 | 0.74 |
| CG13407 | DRSC14583 | 1.06 | 1.07 | -0.47 | -0.21 |
| CG14022 | DRSC02352 | 0.72 | -0.23 | 0.73 | -0.84 |
| mgl (Megalin) | DRSC17800 | 1.58 | 0.28 | -0.11 | 0.14 |
| mgl (Megalin) | DRSC17823 | 0.21 | 0.33 | 0.19 | 0.58 |
| mgl (Megalin) | DRSC17859 | 0.35 | 0.67 | 0.31 | 0.64 |
| mgl (Megalin) | DRSC18004 | -1.01 | 0.51 | -0.41 | 0.57 |
| CG15471 | DRSC18054 | -1.85 | -1.85 | -0.59 | 0.43 |
| Cpr62Ba (Cuticular protein 62Ba) | DRSC08403 | -0.42 | -0.04 | -0.05 | -0.57 |
| NT5E-2 (Ecto-5'-nucleotidase 2) | DRSC06893 | 0.06 | 0.63 | -0.4 | 1.63 |
| HisRS (Histidyl-tRNA synthetase) | DRSC19986 | -0.43 | 0.18 | 0.64 | 0.21 |
| CG7246 | DRSC18422 | -0.73 | -0.29 | 1.37 | -0.45 |
| elav (embryonic lethal abnormal vision) | DRSC18772 | 0.56 | 0.26 | 1.01 | 0.06 |
| CG7296 | DRSC03042 | 0.63 | -0.25 | 0.46 | 0.59 |
| CG7296 | DRSC22343 | 0.03 | -0.26 | -0.22 | 0.07 |
| atilla | DRSC02971 | 0.15 | 0.29 | 0.49 | 0.21 |
| CG7101 | DRSC20023 | 0.56 | 0.49 | -0.71 | -0.12 |
| CG7101 | DRSC22845 | -0.12 | -0.03 | -0.08 | 1.2 |
| CG13893 | DRSC08363 | -0.5 | 0.03 | 0.48 | 0.38 |
| Kap-alpha1 (karyopherin alpha1) | DRSC11356 | -2.03 | -0.12 | -0.29 | 0.12 |
| CG5746 | DRSC15868 | -1.53 | -0.87 | 0.51 | 0.03 |

As entered above:
Under “replicate 1, z-score of dpERK under basal conditions”, CG14022 [DRSC02352] has 0.73
Result for CG15084 [DRSC06515] in “replicate 1, z-score of dpERK with insulin”: 0.2
Result for HDAC1 (Histone deacetylase 1) [DRSC08696] in “replicate 2, z-score of dpERK with insulin”: -0.61
For “replicate 1, z-score of dpERK with insulin”, Rim (Rab3 interacting molecule) [DRSC16225] is entered as -2.23
For “replicate 1, z-score of dpERK under basal conditions”, uncNacbeta [DRSC00326] has 0.81
Under “replicate 1, z-score of ERK-YFP with insulin”, Vps35 (Vacuolar protein sorting 35) [DRSC04519] reads 0.16
